Test results: patent publication US8957019B2 (priority 2011, dated 2015)
Ends that are not written are not given here.

Legend:
[1] = general procedure: Fmoc solid-phase peptide synthesis; Wang resin; DIC/HOBT, DMAP; details: whole synthesis, scale of the general procedure 0.04 mol
[2] = general procedure: Fmoc solid-phase peptide synthesis; Wang resin (Tianjin Nankai Synthesis Technology Co., Ltd.); DIC/HOBT, DMAP; details: whole synthesis, HPLC normalization method, scale of the general procedure 0.04 mol

| Substance | isolated yield [1] [%] | final HPLC purity [2] [%] |
| --- | --- | --- |
| GAGPHG-OH | 20.5 | 99.0 |
| GAGPHGG-OH | 15.5 | 99.0 |
